The supplement of paper PMC10849652
Some of the results follow.

The chains behind the UniProt entries cited, without tags or fusion partners. Where a name states a change or a piece, a line headed by the entry shows the natural chain unless it says otherwise.
UniProt Q12788: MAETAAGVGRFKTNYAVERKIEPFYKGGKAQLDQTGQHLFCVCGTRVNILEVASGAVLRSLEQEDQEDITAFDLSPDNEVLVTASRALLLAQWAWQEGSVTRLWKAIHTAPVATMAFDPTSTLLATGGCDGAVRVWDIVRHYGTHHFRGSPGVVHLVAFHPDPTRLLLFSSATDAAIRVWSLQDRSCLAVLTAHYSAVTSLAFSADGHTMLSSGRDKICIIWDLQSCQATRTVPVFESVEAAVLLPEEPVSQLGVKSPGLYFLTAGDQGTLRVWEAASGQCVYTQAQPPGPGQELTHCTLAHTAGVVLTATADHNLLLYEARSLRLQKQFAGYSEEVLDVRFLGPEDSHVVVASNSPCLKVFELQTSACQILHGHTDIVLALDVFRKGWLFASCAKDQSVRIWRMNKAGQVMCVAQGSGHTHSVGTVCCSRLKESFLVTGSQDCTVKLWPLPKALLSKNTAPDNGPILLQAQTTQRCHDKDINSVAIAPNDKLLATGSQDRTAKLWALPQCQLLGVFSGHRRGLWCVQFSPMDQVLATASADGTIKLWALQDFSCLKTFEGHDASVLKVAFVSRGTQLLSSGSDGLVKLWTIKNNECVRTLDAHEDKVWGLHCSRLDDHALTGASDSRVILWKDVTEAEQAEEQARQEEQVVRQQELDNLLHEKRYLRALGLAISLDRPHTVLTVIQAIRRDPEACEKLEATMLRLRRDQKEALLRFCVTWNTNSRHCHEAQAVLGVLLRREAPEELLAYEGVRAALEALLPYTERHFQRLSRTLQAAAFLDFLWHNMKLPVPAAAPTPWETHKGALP
UniProt Q99081: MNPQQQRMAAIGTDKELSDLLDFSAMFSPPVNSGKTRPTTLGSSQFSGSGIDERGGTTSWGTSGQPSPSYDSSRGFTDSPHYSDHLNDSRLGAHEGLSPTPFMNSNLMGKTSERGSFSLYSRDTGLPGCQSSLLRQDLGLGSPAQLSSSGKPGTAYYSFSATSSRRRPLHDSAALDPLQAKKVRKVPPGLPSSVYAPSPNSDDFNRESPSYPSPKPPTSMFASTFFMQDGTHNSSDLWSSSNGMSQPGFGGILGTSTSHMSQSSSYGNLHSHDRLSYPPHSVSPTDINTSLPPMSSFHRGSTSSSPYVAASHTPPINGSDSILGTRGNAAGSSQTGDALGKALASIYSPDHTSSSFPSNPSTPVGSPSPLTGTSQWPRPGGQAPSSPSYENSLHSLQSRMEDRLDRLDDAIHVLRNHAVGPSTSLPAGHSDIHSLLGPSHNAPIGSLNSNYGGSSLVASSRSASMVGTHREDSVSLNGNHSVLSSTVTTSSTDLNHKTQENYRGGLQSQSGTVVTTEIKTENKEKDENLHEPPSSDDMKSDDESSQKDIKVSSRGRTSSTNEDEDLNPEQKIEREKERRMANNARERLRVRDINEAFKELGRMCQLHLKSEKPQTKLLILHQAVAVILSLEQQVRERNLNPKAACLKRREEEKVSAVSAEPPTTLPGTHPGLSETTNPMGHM
UniProt Q9Y4P3: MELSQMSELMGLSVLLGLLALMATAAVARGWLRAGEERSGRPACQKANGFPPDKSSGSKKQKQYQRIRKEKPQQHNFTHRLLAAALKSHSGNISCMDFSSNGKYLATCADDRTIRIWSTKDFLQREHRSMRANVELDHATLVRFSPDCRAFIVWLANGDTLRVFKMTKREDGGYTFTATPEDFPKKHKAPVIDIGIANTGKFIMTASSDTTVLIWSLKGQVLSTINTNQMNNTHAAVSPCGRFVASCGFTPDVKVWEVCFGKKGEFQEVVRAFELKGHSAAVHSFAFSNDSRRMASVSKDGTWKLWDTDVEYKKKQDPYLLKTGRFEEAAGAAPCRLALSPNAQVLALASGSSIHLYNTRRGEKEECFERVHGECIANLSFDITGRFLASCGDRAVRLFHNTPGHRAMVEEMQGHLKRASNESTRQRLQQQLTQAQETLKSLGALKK
UniProt Q8IYQ7: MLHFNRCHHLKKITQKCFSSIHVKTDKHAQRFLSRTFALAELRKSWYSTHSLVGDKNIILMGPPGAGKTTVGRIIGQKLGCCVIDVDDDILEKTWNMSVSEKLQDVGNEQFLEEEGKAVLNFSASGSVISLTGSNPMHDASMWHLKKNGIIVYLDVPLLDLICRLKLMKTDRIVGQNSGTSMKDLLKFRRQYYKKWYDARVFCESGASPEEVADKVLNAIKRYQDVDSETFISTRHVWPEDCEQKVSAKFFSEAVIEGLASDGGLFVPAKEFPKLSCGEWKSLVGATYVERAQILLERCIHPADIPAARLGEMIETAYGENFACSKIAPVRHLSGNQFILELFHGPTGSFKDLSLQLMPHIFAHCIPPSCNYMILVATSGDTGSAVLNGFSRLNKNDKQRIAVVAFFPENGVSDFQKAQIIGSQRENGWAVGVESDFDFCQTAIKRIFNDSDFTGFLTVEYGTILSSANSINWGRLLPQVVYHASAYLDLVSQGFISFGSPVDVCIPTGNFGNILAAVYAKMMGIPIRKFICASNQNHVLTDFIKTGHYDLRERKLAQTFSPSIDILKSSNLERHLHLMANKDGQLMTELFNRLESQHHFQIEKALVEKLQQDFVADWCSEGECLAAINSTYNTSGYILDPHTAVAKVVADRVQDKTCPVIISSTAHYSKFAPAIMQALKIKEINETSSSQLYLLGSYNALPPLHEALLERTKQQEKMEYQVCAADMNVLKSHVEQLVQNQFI
UniProt Q5T1C6: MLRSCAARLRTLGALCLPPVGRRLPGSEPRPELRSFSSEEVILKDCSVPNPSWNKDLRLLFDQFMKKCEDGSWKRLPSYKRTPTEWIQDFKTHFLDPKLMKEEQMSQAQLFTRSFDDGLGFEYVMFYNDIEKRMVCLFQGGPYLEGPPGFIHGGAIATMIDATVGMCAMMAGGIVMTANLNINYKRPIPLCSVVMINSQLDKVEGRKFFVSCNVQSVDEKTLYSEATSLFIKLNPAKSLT
UniProt Q9BV44: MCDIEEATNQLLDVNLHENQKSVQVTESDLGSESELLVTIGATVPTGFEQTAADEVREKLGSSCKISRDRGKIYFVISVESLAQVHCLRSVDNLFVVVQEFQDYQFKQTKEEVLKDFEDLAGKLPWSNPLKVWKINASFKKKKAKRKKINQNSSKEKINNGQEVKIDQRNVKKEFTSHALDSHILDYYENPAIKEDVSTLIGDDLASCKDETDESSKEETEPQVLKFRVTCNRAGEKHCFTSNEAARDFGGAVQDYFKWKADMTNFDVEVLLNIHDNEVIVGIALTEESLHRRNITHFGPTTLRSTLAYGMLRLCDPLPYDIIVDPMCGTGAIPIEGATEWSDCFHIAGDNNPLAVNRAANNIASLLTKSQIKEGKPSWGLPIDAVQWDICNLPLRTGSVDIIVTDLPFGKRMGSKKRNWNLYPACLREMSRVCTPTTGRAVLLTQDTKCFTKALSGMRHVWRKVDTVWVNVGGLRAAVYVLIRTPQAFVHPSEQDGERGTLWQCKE
UniProt Q8WUY1: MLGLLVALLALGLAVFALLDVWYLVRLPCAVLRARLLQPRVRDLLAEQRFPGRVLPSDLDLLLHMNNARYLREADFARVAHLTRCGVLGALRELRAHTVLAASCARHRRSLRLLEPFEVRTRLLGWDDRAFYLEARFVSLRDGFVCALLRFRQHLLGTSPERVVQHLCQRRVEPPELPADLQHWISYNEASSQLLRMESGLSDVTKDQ
UniProt Q86W42: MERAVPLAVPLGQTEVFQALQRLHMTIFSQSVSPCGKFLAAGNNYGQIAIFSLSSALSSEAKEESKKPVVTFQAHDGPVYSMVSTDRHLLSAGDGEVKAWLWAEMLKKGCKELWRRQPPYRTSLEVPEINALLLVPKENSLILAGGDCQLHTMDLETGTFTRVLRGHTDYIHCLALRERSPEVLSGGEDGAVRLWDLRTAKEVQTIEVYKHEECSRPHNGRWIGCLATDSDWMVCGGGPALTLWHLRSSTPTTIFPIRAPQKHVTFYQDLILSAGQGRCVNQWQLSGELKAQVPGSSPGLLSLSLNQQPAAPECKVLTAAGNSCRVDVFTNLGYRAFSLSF
UniProt Q9NPL8: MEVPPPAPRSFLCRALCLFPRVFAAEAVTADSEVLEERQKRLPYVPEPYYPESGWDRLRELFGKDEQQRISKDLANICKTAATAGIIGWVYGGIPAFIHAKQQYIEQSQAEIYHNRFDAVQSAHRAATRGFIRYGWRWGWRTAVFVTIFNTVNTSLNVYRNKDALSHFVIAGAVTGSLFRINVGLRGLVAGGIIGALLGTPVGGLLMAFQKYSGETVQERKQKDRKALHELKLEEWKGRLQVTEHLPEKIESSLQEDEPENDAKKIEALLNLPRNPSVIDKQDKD
UniProt Q96FV9: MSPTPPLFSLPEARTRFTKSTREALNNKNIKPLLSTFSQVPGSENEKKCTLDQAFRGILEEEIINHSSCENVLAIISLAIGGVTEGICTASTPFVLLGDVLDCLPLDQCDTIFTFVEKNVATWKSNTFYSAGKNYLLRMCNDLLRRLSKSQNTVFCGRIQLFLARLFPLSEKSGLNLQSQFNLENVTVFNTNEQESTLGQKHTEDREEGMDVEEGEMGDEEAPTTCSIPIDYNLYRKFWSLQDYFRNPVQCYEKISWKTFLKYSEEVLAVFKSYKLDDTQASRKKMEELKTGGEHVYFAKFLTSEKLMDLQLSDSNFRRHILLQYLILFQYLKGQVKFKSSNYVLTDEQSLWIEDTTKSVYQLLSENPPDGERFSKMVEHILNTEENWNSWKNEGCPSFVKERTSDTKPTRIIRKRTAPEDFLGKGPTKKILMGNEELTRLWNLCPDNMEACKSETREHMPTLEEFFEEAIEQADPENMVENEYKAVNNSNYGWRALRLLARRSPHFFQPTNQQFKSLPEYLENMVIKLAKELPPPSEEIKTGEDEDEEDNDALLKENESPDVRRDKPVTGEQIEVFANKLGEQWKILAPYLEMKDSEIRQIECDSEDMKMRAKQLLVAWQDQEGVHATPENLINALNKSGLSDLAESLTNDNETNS
UniProt Q96MV1: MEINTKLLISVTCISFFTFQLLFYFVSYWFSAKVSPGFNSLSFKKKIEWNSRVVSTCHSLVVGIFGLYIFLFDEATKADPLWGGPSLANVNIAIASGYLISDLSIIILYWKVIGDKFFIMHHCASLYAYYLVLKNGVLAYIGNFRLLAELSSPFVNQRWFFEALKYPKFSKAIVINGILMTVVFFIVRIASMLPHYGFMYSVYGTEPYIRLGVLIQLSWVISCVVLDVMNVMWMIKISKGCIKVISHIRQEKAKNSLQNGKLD
UniProt P17987, whole entry, looked up: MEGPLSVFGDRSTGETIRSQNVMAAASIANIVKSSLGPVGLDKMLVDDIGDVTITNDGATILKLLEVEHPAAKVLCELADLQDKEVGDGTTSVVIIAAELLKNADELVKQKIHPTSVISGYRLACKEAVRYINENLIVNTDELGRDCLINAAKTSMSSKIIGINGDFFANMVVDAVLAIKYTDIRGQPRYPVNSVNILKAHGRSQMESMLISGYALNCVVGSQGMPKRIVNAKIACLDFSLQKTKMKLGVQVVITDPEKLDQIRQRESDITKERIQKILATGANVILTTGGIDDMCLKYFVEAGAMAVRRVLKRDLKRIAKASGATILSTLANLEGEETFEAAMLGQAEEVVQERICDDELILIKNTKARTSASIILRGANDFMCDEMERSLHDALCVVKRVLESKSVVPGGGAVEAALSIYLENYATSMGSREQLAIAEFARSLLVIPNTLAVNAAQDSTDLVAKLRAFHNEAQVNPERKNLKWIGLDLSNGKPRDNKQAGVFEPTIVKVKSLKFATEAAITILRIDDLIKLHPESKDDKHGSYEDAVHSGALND
UniProt O14925: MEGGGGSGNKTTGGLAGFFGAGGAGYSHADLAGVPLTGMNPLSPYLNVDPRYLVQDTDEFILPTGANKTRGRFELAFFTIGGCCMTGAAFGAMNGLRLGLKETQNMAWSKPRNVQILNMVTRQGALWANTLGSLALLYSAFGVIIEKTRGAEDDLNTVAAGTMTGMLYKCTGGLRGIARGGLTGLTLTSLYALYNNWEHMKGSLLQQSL
UniProt P01033: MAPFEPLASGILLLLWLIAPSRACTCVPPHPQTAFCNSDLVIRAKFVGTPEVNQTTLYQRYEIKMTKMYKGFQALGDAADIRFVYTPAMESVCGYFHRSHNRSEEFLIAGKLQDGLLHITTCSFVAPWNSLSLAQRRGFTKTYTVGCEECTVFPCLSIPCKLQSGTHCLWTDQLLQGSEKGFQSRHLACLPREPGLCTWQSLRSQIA

How the values were obtained:
Assay in all cases: log2 fold change, soluble protein after heating vs DMSO (PISA); higher = thermal stabilisation; K562 cells, 10 uM, 30 min; active = over 0.2 and 3.5 SD of the protein, either way, in both replicates (recomputed)
[1] = compound: COC1=CC=C(C=C1)CN2C=CC3=C2C=C(C=C3)C(=O)NO
Outline: (§1)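 Soluble protein was defined as the supernatant after 21,000xg for 90 min. It came from K562 cells at 2×10^6 cells/mL given 10 μM compound for 30 min, heated in aliquots for 3 min across 48°C-58°C, pooled, and extracted in PBS with 0.5% NP-40 at 4°C, and was quantified by TMTpro 16plex LC-MS/MS with equalised channel sums. Thermal stability against control samples, from duplicates, is reported as log2 fold change.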

filanesib = compound: CON(C)C(=O)N1N=C(c2cc(F)ccc2F)S[C@@]1(CCCN)c1ccccc1 [filanesib]
Outline: as §1

zotarolimus = compound: CO[C@H]1C[C@@H]2CC[C@@H](C)[C@@](O)(O2)C(=O)C(=O)N2CCCC[C@H]2C(=O)O[C@H]([C@H](C)C[C@@H]2CC[C@H](n3cnnn3)[C@H](OC)C2)CC(=O)[C@H](C)/C=C(\C)[C@@H](O)[C@@H](OC)C(=O)[C@H](C)C[C@H](C)/C=C/C=C/C=C/1C [zotarolimus]
Outline: as §1

idasanutlin = compound: COc1cc(C(=O)O)ccc1NC(=O)[C@@H]1N[C@@H](CC(C)(C)C)[C@](C#N)(c2ccc(Cl)cc2F)[C@H]1c1cccc(Cl)c1F [idasanutlin]
Outline: as §1

alisertib = compound: COc1cc(Nc2ncc3c(n2)-c2ccc(Cl)cc2C(c2c(F)cccc2OC)=NC3)ccc1C(=O)O [alisertib]
Outline: as §1

[2] = compound: COc1cc2nc(-c3cc(F)ccc3O)nc(N[C@@H]3CNC[C@H]3C(C)(C)O)c2cc1OC
Outline: as §1

gefitinib = compound: COc1cc2ncnc(Nc3ccc(F)c(Cl)c3)c2cc1OCCCN1CCOCC1 [gefitinib]
Outline: as §1

[3] = compound: COc1cccc2cc(-c3nc([C@H]4CC[C@H](C(=O)O)CC4)n4ncnc(N)c34)[nH]c12
Outline: as §1

lapatinib = compound: CS(=O)(=O)CCNCc1ccc(-c2ccc3ncnc(Nc4ccc(OCc5cccc(F)c5)c(Cl)c4)c3c2)o1 [lapatinib]
Outline: as §1

pictilisib = compound: CS(=O)(=O)N1CCN(Cc2cc3nc(-c4cccc5[nH]ncc45)nc(N4CCOCC4)c3s2)CC1 [pictilisib]
Outline: as §1

[4] = compound: CS(=O)(=O)c1ccc(-c2cnc(N)c(C(=O)Nc3ccccc3)n2)cc1
Outline: as §1

crizotinib = compound: C[C@@H](Oc1cc(-c2cnn(C3CCNCC3)c2)cnc1N)c1c(Cl)ccc(F)c1Cl [crizotinib]
Outline: as §1

[5] = compound: C[C@@H]1COCCN1C2=NC(=NC(=C2)C3(CC3)S(=O)(=O)C)C4=C5C=CNC5=CC=C4
Outline: as §1

[6] = compound: C[C@H](C1=CC=C(C=C1)C(=O)NC2=C3C=CNC3=NC=C2)N
Outline: as §1

duvelisib = compound: C[C@H](Nc1ncnc2nc[nH]c12)c1cc2cccc(Cl)c2c(=O)n1-c1ccccc1 [duvelisib]
Outline: as §1

gandotinib = compound: Cc1cc(Nc2cc(CN3CCOCC3)c3nc(C)c(Cc4ccc(Cl)cc4F)n3n2)n[nH]1 [gandotinib]
Outline: as §1

tozasertib = compound: Cc1cc(Nc2cc(N3CCN(C)CC3)nc(Sc3ccc(NC(=O)C4CC4)cc3)n2)n[nH]1 [tozasertib]
Outline: as §1

[7] = compound: Cc1cc(SCc2sc(-c3ccc(C(F)(F)F)cc3)nc2C)ccc1OCC(=O)O
Outline: as §1

doramapimod = compound: Cc1ccc(-n2nc(C(C)(C)C)cc2NC(=O)Nc2ccc(OCCN3CCOCC3)c3ccccc23)cc1 [doramapimod]
Outline: as §1

ispinesib = compound: Cc1ccc(C(=O)N(CCCN)[C@@H](c2nc3cc(Cl)ccc3c(=O)n2Cc2ccccc2)C(C)C)cc1 [ispinesib]
Outline: as §1

Measured: log2 fold change

TBL3 (UniProt Q12788)
inactive: [1] 0.009 | filanesib 0.209 | zotarolimus 0.044 | idasanutlin 0.118 | alisertib -0.037 | [2] 0.035 | gefitinib 0.067 | [3] -0.025 | lapatinib 0.06 | pictilisib -0.006 | [4] 0 | crizotinib -0.053 | [5] -0.038 | [6] 0.134 | duvelisib -0.045 | gandotinib 0.018 | tozasertib 0.004 | [7] -0.006 | doramapimod 0.108 | ispinesib -0.052

TCF12 isoform 3 (UniProt Q99081)
inactive: [1] 0.108 | filanesib -0.044 | zotarolimus 0.022 | idasanutlin -0.191 | alisertib -0.043 | [2] -0.034 | gefitinib -0.011 | [3] 0.038 | lapatinib 0.015 | pictilisib 0.014 | [4] -0.015 | crizotinib -0.013 | [5] -0.029 | [6] -0.223 | duvelisib -0.004 | gandotinib -0.203 | tozasertib 0.063 | [7] 0.097 | doramapimod 0.02 | ispinesib 0.043

TBL2 (UniProt Q9Y4P3)
inactive: [1] 0.011 | filanesib 0.312 | zotarolimus 0.076 | idasanutlin 0.108 | alisertib 0.045 | [2] 0.019 | gefitinib 0.014 | [3] -0.125 | lapatinib 0.05 | pictilisib -0.033 | [4] -0.067 | crizotinib 0.052 | [5] -0.314 | [6] 0.2 | duvelisib -0.088 | gandotinib 0.185 | tozasertib -0.034 | [7] 0.038 | doramapimod 0.154 | ispinesib -0.191

THNSL1 (UniProt Q8IYQ7)
inactive: [1] 0.009 | filanesib -0.149 | zotarolimus 0.036 | idasanutlin 0.037 | alisertib -0.008 | [2] 0.008 | gefitinib 0.025 | [3] 0.01 | lapatinib 0.011 | pictilisib 0.082 | [4] 0.018 | crizotinib -0.022 | [5] 0.075 | [6] -0.054 | duvelisib 0.055 | gandotinib -0.002 | tozasertib -0.026 | [7] 0.035 | doramapimod 0.003 | ispinesib 0.106

THEM4 (UniProt Q5T1C6)
inactive: [1] 0.018 | filanesib -0.043 | zotarolimus -0.006 | idasanutlin -0.025 | alisertib -0.039 | [2] -0.038 | gefitinib 0.034 | [3] 0.026 | lapatinib 0.044 | pictilisib 0.037 | [4] 0.045 | crizotinib 0.07 | [5] 0.022 | [6] -0.082 | duvelisib -0.007 | gandotinib 0.033 | tozasertib -0.044 | [7] -0.05 | doramapimod -0.075 | ispinesib 0.054

THUMPD3 (UniProt Q9BV44)
inactive: [1] -0.023 | filanesib -0.076 | zotarolimus 0.005 | idasanutlin -0.029 | alisertib -0.044 | [2] -0.032 | gefitinib 0.01 | [3] 0.005 | lapatinib 0.026 | pictilisib -0.03 | [4] -0.009 | crizotinib 0.037 | [5] 0.015 | [6] -0.087 | duvelisib 0.055 | gandotinib -0.003 | tozasertib 0.03 | [7] -0.004 | doramapimod 0.001 | ispinesib 0.037

THEM6 (UniProt Q8WUY1)
inactive: [1] 0.002 | filanesib -0.065 | zotarolimus 0.018 | idasanutlin 0.001 | alisertib -0.088 | [2] -0.047 | gefitinib 0.01 | [3] 0.099 | lapatinib 0.013 | pictilisib 0.05 | [4] -0.008 | crizotinib -0.186 | [5] 0.129 | [6] -0.125 | duvelisib 0.064 | gandotinib 0.012 | tozasertib 0.004 | [7] 0.019 | doramapimod 0.013 | ispinesib 0.05

Reprinted from the results shown (2 entries):
THEM4 (UniProt Q5T1C6)
inactive: [1] 0.018 | filanesib -0.043 | zotarolimus -0.006 | idasanutlin -0.025 | alisertib -0.039 | [2] -0.038 | gefitinib 0.034 | [3] 0.026 | lapatinib 0.044 | pictilisib 0.037 | [4] 0.045 | crizotinib 0.07 | [5] 0.022 | [6] -0.082 | duvelisib -0.007 | gandotinib 0.033 | tozasertib -0.044 | [7] -0.05 | doramapimod -0.075 | ispinesib 0.054

THUMPD3 (UniProt Q9BV44)
inactive: [1] -0.023 | filanesib -0.076 | zotarolimus 0.005 | idasanutlin -0.029 | alisertib -0.044 | [2] -0.032 | gefitinib 0.01 | [3] 0.005 | lapatinib 0.026 | pictilisib -0.03 | [4] -0.009 | crizotinib 0.037 | [5] 0.015 | [6] -0.087 | duvelisib 0.055 | gandotinib -0.003 | tozasertib 0.03 | [7] -0.004 | doramapimod 0.001 | ispinesib 0.037

Continuation:

THOC6 (UniProt Q86W42)
inactive: [1] -0.025 | filanesib -0.005 | zotarolimus -0.023 | idasanutlin -0.009 | alisertib -0.111 | [2] 0.041 | gefitinib 0.022 | [3] 0.003 | lapatinib -0.033 | pictilisib -0.011 | [4] 0.041 | crizotinib 0.022 | [5] 0.02 | [6] 0.035 | duvelisib 0.023 | gandotinib 0.005 | tozasertib 0.018 | [7] -0.018 | doramapimod 0.033 | ispinesib 0.052

TIMMDC1 (UniProt Q9NPL8)
inactive: [1] 0.075 | filanesib -0.056 | zotarolimus -0.065 | idasanutlin -0.008 | alisertib -0.03 | [2] -0.014 | gefitinib 0.008 | [3] 0.01 | lapatinib -0.022 | pictilisib 0.017 | [4] 0.002 | crizotinib 0.064 | [5] 0.016 | [6] 0.017 | duvelisib -0.025 | gandotinib 0.03 | tozasertib -0.021 | [7] -0.07 | doramapimod -0.063 | ispinesib 0.08

THOC1 (UniProt Q96FV9)
inactive: [1] -0.06 | filanesib 0.099 | zotarolimus 0.105 | idasanutlin 0.186 | alisertib 0.052 | [2] -0.087 | gefitinib -0.032 | [3] -0.146 | lapatinib -0.013 | pictilisib -0.132 | [4] -0.04 | crizotinib -0.083 | [5] -0.087 | [6] 0.074 | duvelisib -0.032 | gandotinib 0.245 | tozasertib -0.004 | [7] 0.078 | doramapimod 0.028 | ispinesib -0.059

TLCD4 (UniProt Q96MV1)
inactive: [1] 0.115 | filanesib -0.019 | zotarolimus -0.033 | idasanutlin -0.082 | alisertib -0.12 | [2] -0.138 | gefitinib -0.022 | [3] 0.047 | lapatinib 0.053 | pictilisib -0.182 | [4] 0.01 | crizotinib -0.009 | [5] -0.043 | [6] -0.098 | duvelisib 0.005 | gandotinib 0.12 | tozasertib 0.028 | [7] 0.034 | doramapimod 0.051 | ispinesib 0.075

TCP1 (UniProt P17987)
inactive: [1] 0.003 | filanesib -0.017 | zotarolimus 0.006 | idasanutlin -0.031 | alisertib -0.062 | [2] 0.014 | gefitinib -0.021 | [3] 0.02 | lapatinib -0.009 | pictilisib 0.005 | [4] -0.006 | crizotinib -0.004 | [5] 0.006 | [6] -0.022 | duvelisib 0.012 | gandotinib -0.012 | tozasertib 0.005 | [7] 0.038 | doramapimod -0.009 | ispinesib -0.03

TIMM23 (UniProt O14925)
inactive: [1] 0.137 | filanesib -0.03 | zotarolimus -0.025 | idasanutlin -0.074 | alisertib -0.076 | [2] -0.229 | gefitinib 0.031 | [3] 0.044 | lapatinib 0.077 | pictilisib 0.001 | [4] 0 | crizotinib 0 | [5] -0.003 | [6] -0.044 | duvelisib -0.045 | gandotinib -0.076 | tozasertib -0.002 | [7] -0.052 | doramapimod -0.025 | ispinesib 0.086

TCEA1 (UniProt P23193)
inactive: [1] 0.152 | filanesib -0.036 | zotarolimus 0.008 | idasanutlin 0.021 | alisertib -0.034 | [2] -0.018 | gefitinib -0.01 | [3] -0.011 | lapatinib -0.02 | pictilisib 0.013 | [4] -0.019 | crizotinib 0.029 | [5] 0.002 | [6] -0.044 | duvelisib 0.054 | gandotinib -0.051 | tozasertib -0.021 | [7] -0.018 | doramapimod -0.093 | ispinesib 0.005

TIMP1 (UniProt P01033)
inactive: [1] -0.062 | filanesib 0.121 | zotarolimus -0.041 | idasanutlin -0.032 | alisertib -0.071 | [2] -0.044 | gefitinib 0.084 | [3] 0.004 | lapatinib 0.053 | pictilisib 0.087 | [4] -0.104 | crizotinib -0.069 | [5] -0.003 | [6] -0.068 | duvelisib 0.048 | gandotinib 0.144 | tozasertib 0.06 | [7] -0.02 | doramapimod 0.024 | ispinesib 0.148
